In this test the test system is Escherichia coli. Description: Antibacterial activity against Escherichia coli UFPEDA 224 after 24 to 48 hrs by serial dilution method. The class given is functional.

Values after ≈ are worked out from the molar mass of the structure shown.

Consider `O=C(N[C@H](CO)[C@H](O)c1ccc([N+](=O)[O-])cc1)C(Cl)Cl` [CHLORAMPHENICOL], for which the minimal inhibitory concentration (MIC) (as a rule, the lowest concentration found to suppress growth) was 14 µg/mL (≈ 43.3 µM).
